Results: patent US20040142862A1, “Methods and compositions for modulating agonist-induced downregulation of G protein-coupled receptors” (The Regents of the University of California, priority 2002, published 2004)
These are yes or no findings as the source states them, for the method shown. Binding seen in cells or lysates may run through a third protein. Some entries that bind do so weakly or less than the wild type. Tags and fused reporters may be left off the sequences shown.

Sequences of proteins named here, by UniProt entry; tags and fusion partners are left off.
UniProt P32300: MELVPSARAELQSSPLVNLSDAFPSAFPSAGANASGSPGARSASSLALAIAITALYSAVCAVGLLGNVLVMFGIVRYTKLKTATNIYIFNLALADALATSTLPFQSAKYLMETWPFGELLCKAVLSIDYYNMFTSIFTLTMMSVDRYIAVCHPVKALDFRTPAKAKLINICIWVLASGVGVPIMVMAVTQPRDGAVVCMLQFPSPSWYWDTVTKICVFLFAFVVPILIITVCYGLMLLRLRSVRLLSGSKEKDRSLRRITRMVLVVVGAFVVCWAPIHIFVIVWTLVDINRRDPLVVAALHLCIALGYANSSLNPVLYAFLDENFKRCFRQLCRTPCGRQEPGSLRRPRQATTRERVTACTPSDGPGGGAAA

How the values were obtained:
[1] = molecular target: epitope (FLAG)-tagged delta opioid receptor (DOR-1), full length, stably expressed in HEK293 cells (UniProt P32300); test: co-immunoprecipitation: receptor immunoprecipitated, blotted with anti-GFP
[2] = molecular target: epitope (FLAG)-tagged delta opioid receptor (DOR-1), full length, stably expressed in HEK293 cells (UniProt P32300); test: co-immunoprecipitation with DOR from cells overexpressing GFP-cGASP1
[3] = molecular target: epitope (FLAG)-tagged delta opioid receptor (DOR-1), full length, stably expressed in HEK293 cells (UniProt P32300); test: co-immunoprecipitation from HEK293 cell lysates

binding [1]: binds
binding [2]: binds
binding [3]: binds
B1: GFP-tagged cGASP1 stably overexpressed in HEK293 cells (protein, not shown: large carriers; small tags and cut ends)
chain: SETEEETIFGSWFWDGKEVSEEAGPCCVSKPEDDEEMIVESWFWSRDKAIKETGTVATCESKPENEEGAIVGSWFEAEDEVDNRTDNGSNCGSRTLADEDEAIVGSWFWAGDEAHFESNPSPVFRAICRSTCSVEQEPDPSRRPQSWEEVTVQFKPGPWGRVGFPSISPFRFPKEAASLFCEMFGGKPRNMVLSPEGEDQESLLQPDQPSPEFPFQYDPSYRSVQEIREHLRAKESTEPESSSCNCIQCELKIGSEEFEELLLLMEKIRDPFIHEISKIAMGMRSASQFTRDFIRDSGVVSLIETLLNYPSSRVRTSFLENMIRMAPPYPNLNIIQTYICKVCEETLAYSVDSPEQLSGIRMIRHLTTTTDYHTLVANYMSGFLSLLATGNAKTRFHVLKMLLNLSENLFMTKELLSAEAVSEFIGLFNREETNDNIQIVLAIFENIGNNIKKETVFSDDDFNIEPLISAFHKVEKFAKELQGKTDNQNDPEGDQEN
